According to patent publication US12378320B2, “Methods for treating pancreatitis” (Cold Spring Harbor Laboratory, priority 2018, dated 2025):

System: CA19-9 modified proteins
Assay: CA19-9 IP/MS (iTRAQ) of organoid conditioned media after Dox treatment
Parameters: species or system mouse
Details: for 17 0H 5B1 (CA19-9 IP/MS relative abundance) / 17 0H NS19 (CA19-9 IP/MS relative abundance) / 17 8H 5B1 (CA19-9 IP/MS relative abundance) / 17 8H NS19 (CA19-9 IP/MS relative abundance): A217 organoid conditioned media; for 17 0H NS19 (CA19-9 IP/MS relative abundance) / 17 8H NS19 (CA19-9 IP/MS relative abundance) / 20 0H NS19 (CA19-9 IP/MS relative abundance) / 20 8H NS19 (CA19-9 IP/MS relative abundance): NS19-9; for 17 0H NS19 (CA19-9 IP/MS relative abundance): every printed value in this column is 1; for 20 0H 5B1 (CA19-9 IP/MS relative abundance) / 20 0H NS19 (CA19-9 IP/MS relative abundance) / 20 8H 5B1 (CA19-9 IP/MS relative abundance) / 20 8H NS19 (CA19-9 IP/MS relative abundance): A220 organoid conditioned media
[1] = A217 (genetic negative) organoids conditioned media, after 8 hours of treatment, CA19-9 IP with 5B1, relative to 17 0H NS19
[2] = A217 (genetic negative) organoids conditioned media, after 8 hours of treatment, CA19-9 IP with NS19-9, relative to 17 0H NS19
[3] = A217 (genetic negative) organoids conditioned media, before treatment (0H), CA19-9 IP with NS19-9, relative abundance, reference channel
[4] = A220 (C;R^LSL;F) organoids conditioned media, before treatment (0H), CA19-9 IP with 5B1, relative to 17 0H NS19
[5] = CA19-9 IP/MS relative abundance, A217 (genetic negative) organoid conditioned media, 0H (before treatment), IP with NS19-9, reference channel = 1
[6] = CA19-9 IP/MS relative abundance, A217 (genetic negative) organoid conditioned media, after 8 hours, IP with 5B1
[7] = CA19-9 IP/MS relative abundance, A217 (genetic negative) organoid conditioned media, after 8 hours, IP with NS19-9
[8] = CA19-9 IP/MS relative abundance, A220 (C;R^LSL;F) organoid conditioned media, 0H (before treatment), IP with 5B1

Row | Substance | 17 0H NS19 [5] | 17 8H 5B1 [6] | 17 8H NS19 [7] | 20 0H 5B1 [8] | other results
1 | O70514 | – | – | – | – | 17 0H 5B1 (CA19-9 IP/MS relative abundance): 2.317; 17 0H NS19 (CA19-9 IP/MS relative abundance): 1; 17 8H 5B1 (CA19-9 IP/MS relative abundance): 3.106; 17 8H NS19 (CA19-9 IP/MS relative abundance): 0.606; 20 0H 5B1 (CA19-9 IP/MS relative abundance): 1.595; 20 0H NS19 (CA19-9 IP/MS relative abundance): 0.656; 20 8H 5B1 (CA19-9 IP/MS relative abundance): 3.708; 20 8H NS19 (CA19-9 IP/MS relative abundance): 0.694
2 | O88844 | – | – | – | – | 17 8H 5B1 [1]: 2.947; 17 8H NS19 [2]: 0.735; 17 0H NS19 [3]: 1; 20 0H 5B1 [4]: 2.088
3 | P01654 | 1 | 0.844 | 0.717 | 0.743 | –
4 | P01837 | 1 | 0.091 | 0.885 | 0.057 | –
5 | P02104 | – | – | – | – | 17 8H 5B1 [1]: 3.568; 17 8H NS19 [2]: 0.977; 17 0H NS19 [3]: 1; 20 0H 5B1 [4]: 2.878
6 | P05213 | 1 | 6.52 | 0.679 | 4.707 | –
7 | P07724 | 1 | 0.388 | 1.1 | 0.288 | –
8 | P07901 | 1 | 4.407 | 0.689 | 3.683 | –
9 | P10126 | 1 | 4.381 | 0.652 | 3.724 | –
10 | P11499 | 1 | 5.452 | 0.678 | 4.681 | –
11 | P11983 | 1 | 3.706 | 0.605 | 3.052 | –
12 | P16125 | 1 | 3.424 | 0.614 | 2.825 | –
13 | P16627 | 1 | 3.954 | 0.657 | 3.284 | –
14 | P17879 | 1 | 3.557 | 0.65 | 3.1 | –
15 | P20029 | 1 | 6.854 | 0.748 | 5.533 | –
16 | P20152 | 1 | 10.327 | 0.527 | 10.501 | –
17 | P26443 | 1 | 7.206 | 0.564 | 6.1 | –
18 | P31001 | 1 | 21.134 | 0.743 | 20.623 | –
19 | P50446 | 1 | 0.796 | 1.21 | 1.064 | –
20 | P51150 | – | – | – | – | 17 0H 5B1 (CA19-9 IP/MS relative abundance): 1.645; 17 0H NS19 (CA19-9 IP/MS relative abundance): 1; 17 8H 5B1 (CA19-9 IP/MS relative abundance): 1.178; 17 8H NS19 (CA19-9 IP/MS relative abundance): 0.671; 20 0H 5B1 (CA19-9 IP/MS relative abundance): 1.253; 20 0H NS19 (CA19-9 IP/MS relative abundance): 0.493; 20 8H 5B1 (CA19-9 IP/MS relative abundance): 1.16; 20 8H NS19 (CA19-9 IP/MS relative abundance): 0.53
21 | P52480 | 1 | 6.066 | 0.517 | 5.275 | –
22 | P56480 | – | – | – | – | 17 8H 5B1 [1]: 2.174; 17 8H NS19 [2]: 0.622; 17 0H NS19 [3]: 1; 20 0H 5B1 [4]: 1.758
23 | P60122 | 1 | 1.961 | 0.608 | 1.597 | –
